Data: paper PMC7950233
Results are given in words; binding and its absence hold for the method and conditions named. In cells and extracts the contact can be indirect. Some results given as binding are weak or reduced against the parent protein; the word gives no strength.

By UniProt entry, the sequences of proteins in these tests, tags left out.
UniProt P30904: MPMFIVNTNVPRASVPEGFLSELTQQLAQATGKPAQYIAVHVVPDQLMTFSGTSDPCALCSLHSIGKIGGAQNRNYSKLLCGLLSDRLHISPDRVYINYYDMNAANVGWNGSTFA

Target: Macrophage migration inhibitory factor (rat (endogenous in primary joint capsule fibroblasts of SD rats)) (UniProt P30904)
Assay: co-IP; total lysates (500 ug) of primary rat JFs treated with MIF for 24 h; precleared with protein A plus G-Sepharose, incubated with anti-MIF or anti-CD74 antibody at 4 C, protein A plus G-Sepharose; immunoblot with anti-MIF or anti-CD74

binding: binds
B1: CD74 receptor (receptor, UniProt P10247 1-280)
chain: MDDQRDLISNHEQLPILGQRARAPESNCNRGVLYTSVSVLVALLLAGQATTAYFLYQQQGRLDKLTVTSQNLQLENLRMKLPKSAKPVSPMRMATPLLMRPLSMDNMLQAPVKNVTKYGNMTQDHVMHLLTKSGPVNYPQLKGSFPENLKHLKNSMNGLDWKVFESWMKQWLLFEMSKNSLEEKQPTQTPPKVLTKCQEEVSHIPDVHPGAFRPKCDENGNYMPLQCHGSTGYCWCVFPNGTEVPHTKSRGRHNCSEPLDMEDPSSGLGVTKQDMGQMFL
